Test results published in the supplement of paper PMC10849652.
Some of the results follow.

Protein sequences, listed by entry. Tags and fused reporters are not part of them. Lines headed by an entry give the natural chain unless they say otherwise; changes in a name come on top.
UniProt Q13332: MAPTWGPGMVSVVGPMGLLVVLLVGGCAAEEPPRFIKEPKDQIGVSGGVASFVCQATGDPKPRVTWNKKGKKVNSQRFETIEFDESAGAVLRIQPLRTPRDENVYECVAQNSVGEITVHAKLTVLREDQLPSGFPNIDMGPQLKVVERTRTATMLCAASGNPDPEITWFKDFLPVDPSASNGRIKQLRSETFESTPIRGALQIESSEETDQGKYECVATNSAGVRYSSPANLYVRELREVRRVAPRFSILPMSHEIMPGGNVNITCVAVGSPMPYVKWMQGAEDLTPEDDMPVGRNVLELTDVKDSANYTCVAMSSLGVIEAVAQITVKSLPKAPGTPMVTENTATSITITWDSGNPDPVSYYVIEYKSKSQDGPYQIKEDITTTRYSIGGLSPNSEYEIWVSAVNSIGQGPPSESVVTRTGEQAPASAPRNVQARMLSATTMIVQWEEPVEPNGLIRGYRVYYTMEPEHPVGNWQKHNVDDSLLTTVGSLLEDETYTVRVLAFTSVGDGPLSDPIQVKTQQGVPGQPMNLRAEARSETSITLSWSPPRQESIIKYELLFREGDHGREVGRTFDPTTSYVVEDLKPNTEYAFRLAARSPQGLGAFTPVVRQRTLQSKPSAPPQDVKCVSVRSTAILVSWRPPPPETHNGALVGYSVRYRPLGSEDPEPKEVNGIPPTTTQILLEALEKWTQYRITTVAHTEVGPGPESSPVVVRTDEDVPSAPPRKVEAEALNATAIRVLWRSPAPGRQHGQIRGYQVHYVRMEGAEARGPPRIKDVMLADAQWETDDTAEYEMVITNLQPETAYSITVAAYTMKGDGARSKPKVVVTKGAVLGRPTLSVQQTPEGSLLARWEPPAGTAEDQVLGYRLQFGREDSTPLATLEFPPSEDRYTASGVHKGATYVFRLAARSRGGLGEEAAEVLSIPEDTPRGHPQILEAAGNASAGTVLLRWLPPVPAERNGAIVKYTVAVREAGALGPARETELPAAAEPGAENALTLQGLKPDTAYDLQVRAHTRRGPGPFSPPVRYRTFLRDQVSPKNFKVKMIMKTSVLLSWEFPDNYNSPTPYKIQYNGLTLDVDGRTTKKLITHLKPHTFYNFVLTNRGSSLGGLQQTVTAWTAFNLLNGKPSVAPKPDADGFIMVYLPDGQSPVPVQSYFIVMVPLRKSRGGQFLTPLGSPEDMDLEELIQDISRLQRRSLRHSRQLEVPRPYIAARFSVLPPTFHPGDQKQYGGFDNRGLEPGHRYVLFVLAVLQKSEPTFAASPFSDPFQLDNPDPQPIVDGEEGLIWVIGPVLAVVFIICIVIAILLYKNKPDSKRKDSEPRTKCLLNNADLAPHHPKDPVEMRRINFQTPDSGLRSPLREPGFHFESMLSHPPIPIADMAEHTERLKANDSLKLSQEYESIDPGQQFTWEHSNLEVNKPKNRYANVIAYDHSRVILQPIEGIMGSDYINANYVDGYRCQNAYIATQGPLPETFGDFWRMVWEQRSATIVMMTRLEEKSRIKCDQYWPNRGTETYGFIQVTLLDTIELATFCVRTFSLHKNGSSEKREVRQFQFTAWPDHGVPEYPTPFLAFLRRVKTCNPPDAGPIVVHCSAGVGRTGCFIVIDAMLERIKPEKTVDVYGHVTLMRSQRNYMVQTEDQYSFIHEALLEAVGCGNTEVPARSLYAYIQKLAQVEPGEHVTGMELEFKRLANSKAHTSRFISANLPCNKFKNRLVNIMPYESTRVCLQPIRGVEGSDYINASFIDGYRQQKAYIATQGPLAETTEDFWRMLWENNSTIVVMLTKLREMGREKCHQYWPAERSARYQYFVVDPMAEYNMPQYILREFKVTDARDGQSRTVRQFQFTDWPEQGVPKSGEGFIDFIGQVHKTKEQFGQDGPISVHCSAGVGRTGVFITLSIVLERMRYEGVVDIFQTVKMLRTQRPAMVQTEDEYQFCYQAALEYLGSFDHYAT
UniProt Q96QR8: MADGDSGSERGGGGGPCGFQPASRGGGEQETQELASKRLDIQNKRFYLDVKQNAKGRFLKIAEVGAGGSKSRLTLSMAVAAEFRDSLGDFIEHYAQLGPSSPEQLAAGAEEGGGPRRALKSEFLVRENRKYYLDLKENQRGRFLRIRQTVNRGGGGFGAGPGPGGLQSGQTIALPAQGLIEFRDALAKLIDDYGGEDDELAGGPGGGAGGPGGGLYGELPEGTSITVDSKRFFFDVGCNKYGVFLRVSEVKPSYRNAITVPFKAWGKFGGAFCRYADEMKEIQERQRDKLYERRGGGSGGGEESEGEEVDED
UniProt P25787: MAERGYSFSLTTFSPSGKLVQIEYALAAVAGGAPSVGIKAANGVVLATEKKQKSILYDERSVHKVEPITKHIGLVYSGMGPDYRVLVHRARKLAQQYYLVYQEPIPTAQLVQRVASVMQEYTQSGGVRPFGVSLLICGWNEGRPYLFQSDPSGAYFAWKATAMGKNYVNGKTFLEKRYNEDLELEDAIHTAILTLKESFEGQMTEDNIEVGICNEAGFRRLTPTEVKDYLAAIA
UniProt Q9Y520: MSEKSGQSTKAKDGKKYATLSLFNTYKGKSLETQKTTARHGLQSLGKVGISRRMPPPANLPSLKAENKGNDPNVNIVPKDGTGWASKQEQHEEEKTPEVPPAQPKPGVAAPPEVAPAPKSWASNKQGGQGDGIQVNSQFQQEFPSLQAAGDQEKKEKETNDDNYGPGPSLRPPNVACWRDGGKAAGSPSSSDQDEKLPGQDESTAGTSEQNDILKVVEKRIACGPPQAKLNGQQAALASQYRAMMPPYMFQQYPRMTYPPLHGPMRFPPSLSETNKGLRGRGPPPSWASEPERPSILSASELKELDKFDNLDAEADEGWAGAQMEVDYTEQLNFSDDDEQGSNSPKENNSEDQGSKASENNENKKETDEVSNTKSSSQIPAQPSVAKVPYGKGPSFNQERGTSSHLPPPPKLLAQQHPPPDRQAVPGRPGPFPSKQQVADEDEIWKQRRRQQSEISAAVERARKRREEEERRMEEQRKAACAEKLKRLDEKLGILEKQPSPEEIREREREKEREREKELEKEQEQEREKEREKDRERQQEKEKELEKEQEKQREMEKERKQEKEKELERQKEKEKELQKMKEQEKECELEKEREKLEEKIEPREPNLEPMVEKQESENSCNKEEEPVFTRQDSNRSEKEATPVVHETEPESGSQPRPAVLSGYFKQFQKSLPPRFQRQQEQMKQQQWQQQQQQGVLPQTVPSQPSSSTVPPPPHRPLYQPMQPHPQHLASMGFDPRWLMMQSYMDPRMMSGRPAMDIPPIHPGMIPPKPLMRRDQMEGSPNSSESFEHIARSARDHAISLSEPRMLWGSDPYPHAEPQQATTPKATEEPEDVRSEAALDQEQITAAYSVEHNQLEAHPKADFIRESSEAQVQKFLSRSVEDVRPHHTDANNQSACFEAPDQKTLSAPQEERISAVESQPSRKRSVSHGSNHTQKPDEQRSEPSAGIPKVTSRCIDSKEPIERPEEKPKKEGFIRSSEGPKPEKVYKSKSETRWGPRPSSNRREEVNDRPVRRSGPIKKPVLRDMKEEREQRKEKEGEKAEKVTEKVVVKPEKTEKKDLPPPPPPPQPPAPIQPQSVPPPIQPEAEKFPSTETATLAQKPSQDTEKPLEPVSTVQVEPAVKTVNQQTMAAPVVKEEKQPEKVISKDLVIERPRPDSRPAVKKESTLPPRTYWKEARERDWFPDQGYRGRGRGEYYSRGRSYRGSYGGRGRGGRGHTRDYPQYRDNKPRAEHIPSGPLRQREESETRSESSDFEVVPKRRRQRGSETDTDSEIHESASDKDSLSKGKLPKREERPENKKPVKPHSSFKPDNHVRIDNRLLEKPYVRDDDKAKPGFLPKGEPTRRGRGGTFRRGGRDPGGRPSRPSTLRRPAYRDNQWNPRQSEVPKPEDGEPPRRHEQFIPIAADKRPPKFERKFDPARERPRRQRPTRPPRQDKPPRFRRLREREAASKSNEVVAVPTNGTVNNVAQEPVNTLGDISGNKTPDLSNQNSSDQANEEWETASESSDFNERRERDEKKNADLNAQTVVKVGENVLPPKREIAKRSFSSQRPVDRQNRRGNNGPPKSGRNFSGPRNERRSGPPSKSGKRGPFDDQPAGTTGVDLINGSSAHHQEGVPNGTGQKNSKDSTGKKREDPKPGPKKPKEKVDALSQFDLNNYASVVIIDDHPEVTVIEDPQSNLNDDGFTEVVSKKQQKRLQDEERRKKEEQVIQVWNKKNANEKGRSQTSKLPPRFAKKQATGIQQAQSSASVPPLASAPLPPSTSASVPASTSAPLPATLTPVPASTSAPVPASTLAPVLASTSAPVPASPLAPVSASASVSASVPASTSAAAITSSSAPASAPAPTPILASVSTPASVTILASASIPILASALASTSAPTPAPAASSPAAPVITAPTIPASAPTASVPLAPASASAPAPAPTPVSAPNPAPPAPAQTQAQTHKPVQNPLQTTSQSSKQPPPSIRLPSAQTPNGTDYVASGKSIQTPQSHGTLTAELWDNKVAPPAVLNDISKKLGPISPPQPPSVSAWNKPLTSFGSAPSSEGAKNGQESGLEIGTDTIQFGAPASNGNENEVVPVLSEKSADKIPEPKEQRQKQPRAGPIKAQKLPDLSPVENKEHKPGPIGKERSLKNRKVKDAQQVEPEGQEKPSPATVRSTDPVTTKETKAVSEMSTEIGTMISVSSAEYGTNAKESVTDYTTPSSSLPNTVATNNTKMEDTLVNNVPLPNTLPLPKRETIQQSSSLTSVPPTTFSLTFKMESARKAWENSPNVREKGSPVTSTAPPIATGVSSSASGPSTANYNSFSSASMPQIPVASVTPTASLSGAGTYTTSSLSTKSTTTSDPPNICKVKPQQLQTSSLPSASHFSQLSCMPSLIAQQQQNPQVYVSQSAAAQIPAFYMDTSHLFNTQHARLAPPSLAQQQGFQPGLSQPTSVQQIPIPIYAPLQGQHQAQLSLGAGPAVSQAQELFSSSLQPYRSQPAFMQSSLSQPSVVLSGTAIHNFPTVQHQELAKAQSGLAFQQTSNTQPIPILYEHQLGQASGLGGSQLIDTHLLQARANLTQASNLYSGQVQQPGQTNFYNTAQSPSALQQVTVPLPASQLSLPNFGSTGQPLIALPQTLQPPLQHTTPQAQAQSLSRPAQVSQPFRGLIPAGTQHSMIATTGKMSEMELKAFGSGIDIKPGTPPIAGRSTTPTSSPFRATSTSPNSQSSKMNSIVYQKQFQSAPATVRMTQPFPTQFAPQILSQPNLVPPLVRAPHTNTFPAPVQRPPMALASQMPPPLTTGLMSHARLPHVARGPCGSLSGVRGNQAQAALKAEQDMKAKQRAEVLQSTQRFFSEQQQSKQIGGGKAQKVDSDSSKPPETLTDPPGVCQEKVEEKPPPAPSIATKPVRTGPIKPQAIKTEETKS
UniProt Q86TP1: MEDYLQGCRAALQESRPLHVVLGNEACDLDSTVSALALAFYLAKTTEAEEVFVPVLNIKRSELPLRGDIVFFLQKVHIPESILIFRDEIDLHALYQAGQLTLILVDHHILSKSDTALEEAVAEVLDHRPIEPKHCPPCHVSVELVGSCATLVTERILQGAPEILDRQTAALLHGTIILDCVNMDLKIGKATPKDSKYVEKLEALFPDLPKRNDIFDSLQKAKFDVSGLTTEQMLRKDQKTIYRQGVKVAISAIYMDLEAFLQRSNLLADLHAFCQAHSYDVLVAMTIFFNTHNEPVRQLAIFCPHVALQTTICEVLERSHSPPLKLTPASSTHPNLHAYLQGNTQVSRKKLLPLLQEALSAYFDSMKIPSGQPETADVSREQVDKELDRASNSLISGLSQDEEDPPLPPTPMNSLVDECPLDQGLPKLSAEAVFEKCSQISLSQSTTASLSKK
UniProt Q96PZ0: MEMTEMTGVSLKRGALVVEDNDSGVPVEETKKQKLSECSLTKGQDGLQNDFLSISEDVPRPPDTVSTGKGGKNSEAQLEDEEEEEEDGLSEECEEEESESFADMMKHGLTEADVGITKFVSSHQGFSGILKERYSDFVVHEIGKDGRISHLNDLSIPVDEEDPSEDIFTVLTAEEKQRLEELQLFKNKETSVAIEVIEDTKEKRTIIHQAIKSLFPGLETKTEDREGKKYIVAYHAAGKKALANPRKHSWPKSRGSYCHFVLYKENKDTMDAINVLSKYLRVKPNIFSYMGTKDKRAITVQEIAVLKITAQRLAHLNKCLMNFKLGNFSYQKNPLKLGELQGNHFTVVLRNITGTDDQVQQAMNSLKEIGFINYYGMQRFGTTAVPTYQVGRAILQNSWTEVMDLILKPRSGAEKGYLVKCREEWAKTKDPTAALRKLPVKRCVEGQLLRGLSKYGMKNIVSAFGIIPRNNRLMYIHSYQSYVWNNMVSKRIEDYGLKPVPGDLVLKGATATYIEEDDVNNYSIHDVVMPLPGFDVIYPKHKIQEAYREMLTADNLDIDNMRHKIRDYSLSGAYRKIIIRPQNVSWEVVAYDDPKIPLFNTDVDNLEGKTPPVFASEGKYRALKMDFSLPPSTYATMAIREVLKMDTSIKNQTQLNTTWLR

How the values were obtained:
Assay in all cases: log2 fold change, soluble protein after heating vs DMSO (PISA); higher = thermal stabilisation; K562 lysate, 10 uM; active = over 0.2 and 3.5 SD of the protein, either way, in both replicates (recomputed)
alvocidib = compound: CN1CC[C@H](c2c(O)cc(O)c3c(=O)cc(-c4ccccc4Cl)oc23)[C@H](O)C1 [alvocidib]
Outline: (§1)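 A 30 min treatment with 10 μM compound was applied to crude K562 extract at 1 mg/mL protein in PBS pH 7.4 with 1 mM MgCl2. Heating for 3 min spanned 48°C-58°C, after which aliquots were pooled, adjusted to 0.5% NP-40 at 4°C and spun at 21,000xg for 90 min. TMTpro 16plex LC-MS/MS of the supernatant, with channel sums equalised, gave values recorded as log-two fold change in thermal stability against solvent controls, from duplicates.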

Tubastatin A = compound: CN1CCc2c(c3ccccc3n2Cc2ccc(C(=O)NO)cc2)C1 [Tubastatin A]
Outline: as §1

[1] = compound: CNC(=O)C1=CC=CC=C1NC2=NC(=NC=C2Cl)NC3=C(C=C(C=C3)N4CCOCC4)OC
Outline: as §1

defactinib = compound: CNC(=O)c1ccc(Nc2ncc(C(F)(F)F)c(NCc3nccnc3N(C)S(C)(=O)=O)n2)cc1 [defactinib]
Outline: as §1

[2] = compound: CNc1nc(-c2ccc3c(N)n[nH]c3c2)cc(N2C[C@@H](C(=O)NC3CCCCC3)CC[C@H]2C)n1
Outline: as §1

encorafenib = compound: COC(=O)N[C@@H](C)CNc1nccc(-c2cn(C(C)C)nc2-c2cc(Cl)cc(NS(C)(=O)=O)c2F)n1 [encorafenib]
Outline: as §1

[3] = compound: COC(=O)[C@H](CCSC)NC(=O)C1=C(C=C(C=C1)NC[C@H](CS)N)C2=CC=CC=C2
Outline: as §1

alisertib = compound: COc1cc(Nc2ncc3c(n2)-c2ccc(Cl)cc2C(c2c(F)cccc2OC)=NC3)ccc1C(=O)O [alisertib]
Outline: as §1

[4] = compound: COc1cc2nc(-c3cc(F)ccc3O)nc(N[C@@H]3CNC[C@H]3C(C)(C)O)c2cc1OC
Outline: as §1

gefitinib = compound: COc1cc2ncnc(Nc3ccc(F)c(Cl)c3)c2cc1OCCCN1CCOCC1 [gefitinib]
Outline: as §1

lapatinib = compound: CS(=O)(=O)CCNCc1ccc(-c2ccc3ncnc(Nc4ccc(OCc5cccc(F)c5)c(Cl)c4)c3c2)o1 [lapatinib]
Outline: as §1

pictilisib = compound: CS(=O)(=O)N1CCN(Cc2cc3nc(-c4cccc5[nH]ncc45)nc(N4CCOCC4)c3s2)CC1 [pictilisib]
Outline: as §1

crizotinib = compound: C[C@@H](Oc1cc(-c2cnn(C3CCNCC3)c2)cnc1N)c1c(Cl)ccc(F)c1Cl [crizotinib]
Outline: as §1

[5] = compound: C[C@H](C1=CC=C(C=C1)C(=O)NC2=C3C=CNC3=NC=C2)N
Outline: as §1

duvelisib = compound: C[C@H](Nc1ncnc2nc[nH]c12)c1cc2cccc(Cl)c2c(=O)n1-c1ccccc1 [duvelisib]
Outline: as §1

gandotinib = compound: Cc1cc(Nc2cc(CN3CCOCC3)c3nc(C)c(Cc4ccc(Cl)cc4F)n3n2)n[nH]1 [gandotinib]
Outline: as §1

tozasertib = compound: Cc1cc(Nc2cc(N3CCN(C)CC3)nc(Sc3ccc(NC(=O)C4CC4)cc3)n2)n[nH]1 [tozasertib]
Outline: as §1

doramapimod = compound: Cc1ccc(-n2nc(C(C)(C)C)cc2NC(=O)Nc2ccc(OCCN3CCOCC3)c3ccccc23)cc1 [doramapimod]
Outline: as §1

bafetinib = compound: Cc1ccc(NC(=O)c2ccc(CN3CC[C@H](N(C)C)C3)c(C(F)(F)F)c2)cc1Nc1nccc(-c2cncnc2)n1 [bafetinib]
Outline: as §1

[6] = compound: Cc1cccc(CC(=O)N2CCc3c2ccc(-c2cn(C)c4ncnc(N)c24)c3F)n1
Outline: as §1

| Target | log2 fold change (alvocidib) | log2 fold change (Tubastatin A) | log2 fold change [1] | log2 fold change (defactinib) | log2 fold change [2] | log2 fold change (encorafenib) | log2 fold change [3] | log2 fold change (alisertib) | log2 fold change [4] | log2 fold change (gefitinib) | log2 fold change (lapatinib) | log2 fold change (pictilisib) | log2 fold change (crizotinib) | log2 fold change [5] | log2 fold change (duvelisib) | log2 fold change (gandotinib) | log2 fold change (tozasertib) | log2 fold change (doramapimod) | log2 fold change (bafetinib) | log2 fold change [6] |
| --- | --- | --- | --- | --- | --- | --- | --- | --- | --- | --- | --- | --- | --- | --- | --- | --- | --- | --- | --- | --- |
| PTPA isoform 2 (UniProt Q15257) | inactive: -0.037 | inactive: 0.027 | inactive: -0.027 | inactive: -0.013 | inactive: -0.059 | inactive: -0.014 | inactive: -0.031 | inactive: -0.013 | inactive: 0.004 | inactive: -0.02 | inactive: 0.016 | inactive: -0.015 | inactive: 0.045 | inactive: -0.099 | inactive: 0.014 | inactive: 0.03 | inactive: -0.003 | inactive: -0.046 | inactive: -0.003 | inactive: 0.015 |
| PTPRS isoform 3 (UniProt Q13332) | inactive: 0.016 | inactive: 0.047 | inactive: -0.039 | inactive: 0.012 | inactive: 0.01 | inactive: -0.017 | inactive: 0.038 | inactive: -0.019 | inactive: -0.061 | inactive: 0.101 | inactive: 0.106 | inactive: -0.098 | inactive: 0.021 | inactive: 0.01 | inactive: 0.059 | inactive: 0.033 | inactive: 0.086 | inactive: -0.028 | inactive: 0.013 | inactive: 0.023 |
| PSMC4 (UniProt P43686) | inactive: 0.02 | inactive: -0.032 | inactive: 0.02 | inactive: 0.004 | inactive: -0.021 | inactive: -0.002 | inactive: 0.051 | inactive: 0.015 | inactive: 0.001 | inactive: -0.032 | inactive: -0.02 | inactive: 0.016 | inactive: -0.014 | inactive: 0.058 | inactive: -0.006 | inactive: -0.084 | inactive: 0.01 | inactive: -0.001 | inactive: -0.028 | inactive: -0.048 |
| PURB (UniProt Q96QR8) | inactive: -0.004 | inactive: -0.04 | inactive: 0.009 | inactive: -0.009 | inactive: -0.067 | inactive: 0.07 | inactive: 0.017 | inactive: -0.011 | inactive: -0.005 | inactive: 0.025 | inactive: 0.024 | inactive: 0.057 | inactive: 0.102 | inactive: -0.02 | inactive: 0.018 | inactive: -0.044 | inactive: 0.12 | inactive: -0.063 | inactive: 0.083 | inactive: 0.044 |
| PSMA2 (UniProt P25787) | inactive: -0.014 | inactive: 0.051 | inactive: -0.008 | inactive: 0.013 | inactive: -0.001 | inactive: -0.008 | inactive: -0.003 | inactive: 0.009 | inactive: 0.03 | inactive: -0.01 | inactive: -0.04 | inactive: -0.003 | inactive: 0.025 | inactive: 0.029 | inactive: 0.011 | inactive: 0.011 | inactive: 0.002 | inactive: -0.016 | inactive: -0.002 | inactive: -0.029 |
| PRRC2C isoform 7 (UniProt Q9Y520) | inactive: -0.036 | inactive: 0.004 | inactive: -0.017 | inactive: 0.001 | inactive: 0.027 | inactive: 0.04 | inactive: -0.072 | inactive: -0.002 | inactive: 0.019 | inactive: -0.011 | inactive: -0.012 | inactive: -0.024 | inactive: 0.023 | inactive: -0.004 | inactive: 0.005 | inactive: -0.005 | inactive: -0.014 | inactive: -0.024 | inactive: -0.024 | inactive: -0.011 |
| PRUNE1 (UniProt Q86TP1) | inactive: -0.009 | inactive: -0.029 | inactive: 0.02 | inactive: 0.008 | inactive: -0.046 | inactive: 0 | inactive: 0.033 | inactive: -0.017 | inactive: -0.009 | inactive: 0.008 | inactive: -0.009 | inactive: -0.004 | inactive: 0.01 | inactive: 0.01 | inactive: 0.065 | inactive: -0.034 | inactive: -0.007 | inactive: -0.001 | inactive: -0.011 | inactive: 0.028 |
| PRPF8 (UniProt Q6P2Q9) | inactive: 0.002 | inactive: -0.035 | inactive: -0.008 | inactive: -0.02 | inactive: -0.013 | inactive: 0.029 | inactive: 0.011 | inactive: 0.005 | inactive: -0.005 | inactive: 0.01 | inactive: -0.012 | inactive: -0.012 | inactive: -0.024 | inactive: 0.013 | inactive: 0.023 | inactive: -0.078 | inactive: -0.002 | inactive: 0.009 | inactive: -0.03 | inactive: 0.028 |
| PSMD13 (UniProt Q9UNM6) | inactive: 0.021 | inactive: -0.017 | inactive: -0.007 | inactive: 0.032 | inactive: -0.038 | inactive: -0.004 | inactive: 0.024 | inactive: 0.011 | inactive: 0.009 | inactive: -0.027 | inactive: -0.025 | inactive: 0.001 | inactive: 0 | inactive: 0.008 | inactive: 0.006 | inactive: -0.086 | inactive: 0.006 | inactive: 0.024 | inactive: -0.022 | inactive: -0.002 |
| PTPN2 (UniProt P17706) | inactive: -0.036 | inactive: -0.115 | inactive: 0.049 | inactive: -0.008 | inactive: 0.005 | inactive: -0.035 | inactive: 0.053 | inactive: 0.052 | inactive: -0.006 | inactive: -0.006 | inactive: -0.016 | inactive: -0.01 | inactive: -0.074 | inactive: -0.084 | inactive: -0.042 | inactive: -0.013 | inactive: -0.037 | inactive: -0.012 | inactive: -0.077 | inactive: 0.071 |
| PSMG3 (UniProt Q9BT73) | inactive: 0.047 | inactive: 0.042 | inactive: 0.013 | inactive: 0.025 | inactive: 0.075 | inactive: -0.025 | inactive: -0.013 | inactive: 0.017 | inactive: -0.009 | inactive: -0.03 | inactive: -0.01 | inactive: 0.024 | inactive: 0.007 | inactive: 0.123 | inactive: -0.003 | inactive: -0.044 | inactive: 0.001 | inactive: 0.012 | inactive: -0.029 | inactive: -0.024 |
| PUS1 (UniProt Q9Y606) | inactive: -0.002 | inactive: -0.049 | inactive: -0.008 | inactive: 0.002 | inactive: -0.029 | inactive: 0 | inactive: 0.086 | inactive: 0.005 | inactive: 0.014 | inactive: -0.019 | inactive: -0.042 | inactive: -0.058 | inactive: -0.062 | inactive: -0.006 | inactive: 0.008 | inactive: -0.033 | inactive: 0.012 | inactive: 0.006 | inactive: -0.047 | inactive: 0.027 |
| PUS3 (UniProt Q9BZE2) | inactive: 0.094 | inactive: -0.181 | inactive: 0.035 | inactive: -0.089 | inactive: -0.117 | inactive: 0.06 | inactive: 0.04 | inactive: 0.01 | inactive: -0.021 | inactive: 0.041 | inactive: 0.008 | inactive: -0.085 | inactive: 0.013 | inactive: 0.148 | inactive: -0.03 | inactive: -0.234 | inactive: 0.019 | inactive: -0.087 | inactive: -0.005 | inactive: -0.185 |
| PTOV1 (UniProt Q86YD1) | inactive: -0.051 |  |  | inactive: -0.053 | inactive: 0.136 |  |  |  |  |  |  |  | inactive: -0.058 | inactive: 0.066 | inactive: 0.202 | inactive: -0.03 |  | inactive: 0.075 |  | inactive: -0.016 |
| PRR4 (UniProt Q16378) | inactive: -0.033 | inactive: 0.181 | inactive: 0.215 | inactive: 0.08 |  | inactive: -0.396 | inactive: 0.126 | inactive: 0.075 | inactive: -0.011 | inactive: 0.026 | inactive: 0.047 |  |  | inactive: 0.291 |  | inactive: -0.34 | inactive: 0.412 |  |  | inactive: 0.252 |
| PUS7 isoform 2 (UniProt Q96PZ0) | inactive: -0.001 | inactive: 0.022 | inactive: 0.012 | inactive: 0.004 | inactive: 0.038 | inactive: -0.005 | inactive: 0.012 | inactive: -0.023 | inactive: 0.004 | inactive: -0.005 | inactive: -0.033 | inactive: -0.02 | inactive: -0.001 | inactive: -0.013 | inactive: 0.034 | inactive: 0.033 | inactive: -0.027 | inactive: -0.005 | inactive: -0.008 | inactive: -0.002 |
| PUM1 isoform 3 (UniProt Q14671) | inactive: 0.02 | inactive: -0.033 | inactive: -0.017 | inactive: 0.017 | inactive: -0.023 | inactive: 0.008 | inactive: 0 | inactive: 0.031 | inactive: 0.017 | inactive: -0.014 | inactive: 0.004 | inactive: -0.036 | inactive: 0.067 | inactive: 0.021 | inactive: -0.003 | inactive: -0.151 | inactive: 0.01 | active: -0.315 | inactive: -0.067 | inactive: -0.026 |

3 entries from above in another layout:
Target	log2 fold change (alvocidib)	log2 fold change (Tubastatin A)	log2 fold change [1]	log2 fold change (defactinib)	log2 fold change [2]	log2 fold change (encorafenib)	log2 fold change [3]	log2 fold change (alisertib)	log2 fold change [4]	log2 fold change (gefitinib)	log2 fold change (lapatinib)	log2 fold change (pictilisib)	log2 fold change (crizotinib)	log2 fold change [5]	log2 fold change (duvelisib)	log2 fold change (gandotinib)	log2 fold change (tozasertib)	log2 fold change (doramapimod)	log2 fold change (bafetinib)	log2 fold change [6]
PSMA2 (UniProt P25787)	inactive: -0.014	inactive: 0.051	inactive: -0.008	inactive: 0.013	inactive: -0.001	inactive: -0.008	inactive: -0.003	inactive: 0.009	inactive: 0.03	inactive: -0.01	inactive: -0.04	inactive: -0.003	inactive: 0.025	inactive: 0.029	inactive: 0.011	inactive: 0.011	inactive: 0.002	inactive: -0.016	inactive: -0.002	inactive: -0.029
PTPN2 (UniProt P17706)	inactive: -0.036	inactive: -0.115	inactive: 0.049	inactive: -0.008	inactive: 0.005	inactive: -0.035	inactive: 0.053	inactive: 0.052	inactive: -0.006	inactive: -0.006	inactive: -0.016	inactive: -0.01	inactive: -0.074	inactive: -0.084	inactive: -0.042	inactive: -0.013	inactive: -0.037	inactive: -0.012	inactive: -0.077	inactive: 0.071
PRR4 (UniProt Q16378)	inactive: -0.033	inactive: 0.181	inactive: 0.215	inactive: 0.08		inactive: -0.396	inactive: 0.126	inactive: 0.075	inactive: -0.011	inactive: 0.026	inactive: 0.047			inactive: 0.291		inactive: -0.34	inactive: 0.412			inactive: 0.252
